Reference: PMC10399995
Numbering of substitutions follows the chain as printed. No constants are given. Whether binding was seen depends on the method and setting. Binding seen in cells or lysates may run through a third protein. Some binding calls cover weakened binding; strength is not graded here. Tags and fused reporters may be left off the sequences shown.

Chains of the proteins cited; added tags and fusions are not shown.
UniProt Q5S007: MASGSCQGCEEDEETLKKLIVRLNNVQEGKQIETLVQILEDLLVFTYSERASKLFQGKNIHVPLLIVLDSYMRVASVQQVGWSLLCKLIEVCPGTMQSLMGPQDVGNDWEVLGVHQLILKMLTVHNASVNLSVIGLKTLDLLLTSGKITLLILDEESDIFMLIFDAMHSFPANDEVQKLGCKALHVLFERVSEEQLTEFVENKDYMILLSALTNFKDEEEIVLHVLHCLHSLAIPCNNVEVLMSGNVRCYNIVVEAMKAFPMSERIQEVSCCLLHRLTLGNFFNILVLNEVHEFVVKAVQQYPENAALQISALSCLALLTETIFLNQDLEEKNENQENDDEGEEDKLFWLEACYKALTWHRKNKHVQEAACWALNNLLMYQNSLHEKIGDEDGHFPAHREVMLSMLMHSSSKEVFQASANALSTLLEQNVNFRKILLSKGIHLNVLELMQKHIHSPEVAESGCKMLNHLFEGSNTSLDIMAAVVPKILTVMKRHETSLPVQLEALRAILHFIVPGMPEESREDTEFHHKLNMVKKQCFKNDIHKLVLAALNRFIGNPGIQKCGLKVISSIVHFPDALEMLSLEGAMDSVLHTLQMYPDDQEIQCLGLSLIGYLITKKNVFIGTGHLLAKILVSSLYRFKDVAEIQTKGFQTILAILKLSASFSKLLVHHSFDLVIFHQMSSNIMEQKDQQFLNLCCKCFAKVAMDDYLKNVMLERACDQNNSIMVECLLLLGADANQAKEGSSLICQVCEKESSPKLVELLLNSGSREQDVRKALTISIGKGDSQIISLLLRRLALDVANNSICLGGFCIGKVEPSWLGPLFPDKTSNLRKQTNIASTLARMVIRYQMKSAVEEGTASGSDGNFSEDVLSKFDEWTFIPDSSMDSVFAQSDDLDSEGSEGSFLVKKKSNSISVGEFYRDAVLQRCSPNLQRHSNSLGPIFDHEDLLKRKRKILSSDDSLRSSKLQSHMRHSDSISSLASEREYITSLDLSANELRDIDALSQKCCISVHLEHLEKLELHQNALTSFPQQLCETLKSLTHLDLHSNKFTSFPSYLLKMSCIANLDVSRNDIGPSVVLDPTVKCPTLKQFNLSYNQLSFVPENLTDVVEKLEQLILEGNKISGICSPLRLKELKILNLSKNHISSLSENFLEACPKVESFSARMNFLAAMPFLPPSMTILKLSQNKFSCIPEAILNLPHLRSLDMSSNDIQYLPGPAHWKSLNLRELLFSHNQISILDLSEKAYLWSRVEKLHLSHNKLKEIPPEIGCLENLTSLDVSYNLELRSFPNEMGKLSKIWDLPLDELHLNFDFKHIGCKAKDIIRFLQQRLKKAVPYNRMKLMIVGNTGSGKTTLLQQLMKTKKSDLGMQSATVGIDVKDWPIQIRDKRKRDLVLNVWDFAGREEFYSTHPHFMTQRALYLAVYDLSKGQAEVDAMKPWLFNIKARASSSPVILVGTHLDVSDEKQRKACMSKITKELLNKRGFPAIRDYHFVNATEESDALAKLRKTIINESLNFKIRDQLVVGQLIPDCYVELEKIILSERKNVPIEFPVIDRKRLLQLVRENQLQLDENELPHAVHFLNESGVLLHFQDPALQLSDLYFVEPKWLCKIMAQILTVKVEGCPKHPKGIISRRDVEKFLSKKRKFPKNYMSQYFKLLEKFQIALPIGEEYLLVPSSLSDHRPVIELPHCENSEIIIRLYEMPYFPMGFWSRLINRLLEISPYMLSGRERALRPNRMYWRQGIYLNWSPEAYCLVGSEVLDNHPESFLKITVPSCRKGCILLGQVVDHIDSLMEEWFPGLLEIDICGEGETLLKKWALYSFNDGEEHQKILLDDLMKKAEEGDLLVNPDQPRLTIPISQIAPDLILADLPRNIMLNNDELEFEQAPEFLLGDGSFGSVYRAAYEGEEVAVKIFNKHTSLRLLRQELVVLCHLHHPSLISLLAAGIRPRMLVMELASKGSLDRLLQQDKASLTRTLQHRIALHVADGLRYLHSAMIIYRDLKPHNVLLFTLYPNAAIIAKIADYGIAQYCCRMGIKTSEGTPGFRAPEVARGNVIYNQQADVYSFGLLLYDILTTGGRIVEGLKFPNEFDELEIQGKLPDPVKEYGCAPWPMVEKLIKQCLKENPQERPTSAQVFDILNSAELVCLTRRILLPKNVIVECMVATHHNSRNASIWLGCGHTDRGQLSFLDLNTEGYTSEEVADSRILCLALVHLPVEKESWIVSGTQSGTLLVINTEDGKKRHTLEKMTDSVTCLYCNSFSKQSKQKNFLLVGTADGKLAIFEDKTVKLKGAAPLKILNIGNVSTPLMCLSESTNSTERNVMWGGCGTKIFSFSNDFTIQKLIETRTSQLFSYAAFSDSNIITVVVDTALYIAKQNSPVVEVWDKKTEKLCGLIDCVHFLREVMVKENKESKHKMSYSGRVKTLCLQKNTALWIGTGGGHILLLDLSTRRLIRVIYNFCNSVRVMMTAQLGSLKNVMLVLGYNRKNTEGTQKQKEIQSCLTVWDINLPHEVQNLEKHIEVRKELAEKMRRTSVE

Experiments:
Experiment in all cases: co-IP; Fig. S4C, legend not shown; the methods describe immunoprecipitation from cell lysates with Protein G-agarose and antibody or with GFP-Trap beads, 4°C, washes in TBS
[1] = target: T1, GFP-Rab29 S185D (human Rab29) (human) (UniProt O14966)
T1 sequence: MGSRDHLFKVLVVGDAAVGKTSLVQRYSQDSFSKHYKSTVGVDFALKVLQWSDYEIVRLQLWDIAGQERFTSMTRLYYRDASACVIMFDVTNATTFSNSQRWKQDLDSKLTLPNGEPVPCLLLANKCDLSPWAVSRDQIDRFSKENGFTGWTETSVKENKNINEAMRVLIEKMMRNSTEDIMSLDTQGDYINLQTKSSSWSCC

[2] = target: T2, GFP-Rab29 S185E (human Rab29) (human) (UniProt O14966)
T2 sequence: T1 sequence with D185E

[3] = target: T3, GFP-Rab29 wild type (human Rab29) (human) (UniProt O14966)
T3 sequence: T1 sequence with D185S

[4] = target: T4, GFP-Rab29 S185A (human Rab29) (human) (UniProt O14966)
T4 sequence: T1 sequence with D185A

Measured: binding

leucine-rich repeat kinase 2 (LRRK2) (from UniProt Q5S007 1-2527) (enzyme)
binds: [1] | [2] | [3] | [4]
